Data as given in PubChem BioAssay AID1053209 (Peter MacCallum Cancer Centre, 2014)
Purpose: 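Follow-up of single siRNAs that strengthen doxorubicin killing in osteosarcoma cells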 (follow-up of hits). Cell system: mouse primary osteosarcoma cells. Reagent: single siRNA against mouse genes, 25 nM (text also states 40 nM). Time to read-out: about 120 h (48 h before drug, then 72 h with drug). Treatment: doxorubicin 100 nM (about IC30-40), added 48 h after transfection, for 72 h. Detection: 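Viability measured by ATP luminescence with and without doxorubicin, each replicate scaled to non-targeting siRNA NT1, averaged over two replicates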. Reading the numbers: viability with doxorubicin, vs NT1: higher = more viable cells under doxorubicin; viability ratio, doxorubicin over no drug: higher = less sensitisation to doxorubicin; viability without drug, vs NT1: higher = more viable cells without drug. Active means: 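Counted as active (class LC dox) if viability falls to 0.7 of NT1 or below under doxorubicin but stays within 0.7 to 1.1 without drug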.
Shown is an unselected part of about 1,580 deposited reagents. In the full data, 207 (13%) are marked active. 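Rows are single siRNAs; four siRNAs per gene were tested, a gene counting as confirmed only when at least two agree.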 Entries without a mark were called inactive. Reagents against one gene are numbered here. No sequences are given here.

gene symbol | siRNA no. | combined effect class | viability with doxorubicin, vs NT1 | viability ratio, doxorubicin over no drug | viability without drug, vs NT1
Snrpa1 | 1 | normal viability with and without drug | 0.8 | 0.84 | 0.95
Snrpa1 | 2 | low viability with and without drug | 0.12 | 0.26 | 0.46
Snrpa1 | 3 | low viability with and without drug | 0.14 | 0.25 | 0.57
Snrpa1 | 4 | low viability with and without drug | 0.19 | 0.3 | 0.63
Ncbp2 | 1 | normal viability with and without drug | 0.71 | 0.79 | 0.9
Ncbp2 | 2 | normal viability with and without drug | 0.94 | 1.02 | 0.92
Ncbp2 | 3 | normal viability with and without drug | 0.92 | 0.88 | 1.04
Ncbp2 | 4 | normal viability with and without drug | 0.74 | 0.81 | 0.91
Psmc5 | 1 | normal viability with and without drug | 1.03 | 1.06 | 0.97
Psmc5 | 2 | low viability with and without drug | 0.31 | 0.53 | 0.58
Psmc5 | 3 | low viability with and without drug | 0.2 | 0.42 | 0.48
Psmc5 | 4 | low viability with and without drug | 0.34 | 0.49 | 0.7
Klhdc4 | 1 | normal viability with and without drug | 0.72 | 0.75 | 0.96
Klhdc4 | 2 | normal viability with and without drug | 0.86 | 0.93 | 0.92
Klhdc4 | 3 | normal viability with and without drug | 0.9 | 0.97 | 0.93
Klhdc4 | 4 | high viability only with doxorubicin | 1.13 | 1.13 | 1

Next part; the last 2 above are carried over.
gene symbol | siRNA no. | combined effect class | viability with doxorubicin, vs NT1 | viability ratio, doxorubicin over no drug | viability without drug, vs NT1
Klhdc4 | 3 | normal viability with and without drug | 0.9 | 0.97 | 0.93
Klhdc4 | 4 | high viability only with doxorubicin | 1.13 | 1.13 | 1
Cebpd | 1 | normal viability with and without drug | 1 | 1 | 1
Cebpd | 2 | normal viability with and without drug | 0.96 | 0.98 | 0.98
Cebpd | 3 | normal viability with and without drug | 0.94 | 0.86 | 1.09
Cebpd | 4 | normal viability with and without drug | 0.76 | 0.88 | 0.86
Rpl23a | 1 | low viability with and without drug | 0.52 | 0.79 | 0.66
Rpl23a | 2 | low viability with and without drug | 0.38 | 0.72 | 0.53
Rpl23a | 3 | low viability with and without drug | 0.46 | 0.88 | 0.52
Rpl23a | 4 | low viability with and without drug | 0.31 | 0.72 | 0.43
